About 210 (0.4%) of roughly 52,000 sequences were called active.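 Rule for the calls: active = gene whose silencing raises cell survival under the drug, median off-target-corrected z-score across its silencing RNAs 2 or more; inactive = the rest.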 The list shows a part of the results.

The text below walks through data of PubChem BioAssay AID1347423 (Functional Genomics Laboratory (NCATS/FGL), 2020).

A short description of the test: Resistance to Poly (ADP-Ribose) Polymerase inhibitor: Gene Identification via Genome-wide siRNA Screen. The settings on record: mouse BRCA2 R2336H ES cells, olaparib, CellTiter-Glo viability; active compounds read high. In short, it runs like this: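 Mouse BRCA2 R2336H ES cells were reverse-transfected with siRNA (20 nM final), treated at 48 h with 500 nM olaparib, and read by CellTiter-Glo after 72 h. Scores: MAD-based z per siRNA, median per gene, seed off-target correction.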
For orientation: Cellular ATP, detected with luciferase, serves as a proxy for viable cell number.
“GGUUAUUUCGGGAGAUAAGTT against 4921532K09Rik”: the z-score was inactive: -1.89. In the case of GGUCUGUACUUUUCUAGUGTT against Olfr394, the z-score was inactive: 1.02. The result for GCAUGAAUUCAAAUUGCCATT against Eltd1 reads inactive: -0.201; that for GGACUUUAAAUGCAAUAUCTT against Trps1, inactive: 1.05; that for CCUAUUGUGAGCUUAAUGCTT against Nrxn2, inactive: 0.505. The result for GGAGACCAAAAUUUCUUGGTT against Sox9 reads inactive: 1.05; that for GGGUCUUUCUCCUUAGCCCTT against BC025600, inactive: 0.0582; that for GGUUUUAGAGGAAAUCGUATT against Arl6ip4, inactive: 2.23.

Consider CGACCUAAUCACUCAGCUUTT against Tubgcp2, for which the z-score was inactive: -1.76.

GCUUGUCAAAUAAACCAAUTT against Vdr: the z-score was inactive: -1.01.

Regarding GGGAGACCAUUGAAGGCAUTT against Gm457, the z-score is inactive: 0.933.

Turning to GGAAGGUAAAAUUGAGAUCTT against Trpv2, the z-score is inactive: 0.596. The result for “GCUAGAAAUGAUUUAUGUGTT against A630018P17Rik” reads inactive: 0.104.

In the case of “GGCCAAGUUCCUUUGCAUATT against 9030625A04Rik”, the z-score was inactive: -0.269. On to “GGGUAAUUAUUGUUUUCUGTT against 1300018P11Rik”, for which the z-score was inactive: 0.755. The result for GGACGGACAUUUAUGACCCTT against Cpsf3 reads inactive: -0.072; that for GGAGAAAUUCGACUGAAAATT against Pcdhb13, inactive: 1.72; that for CAGGCCUGAACUUUUUAUUTT against Olfr533, inactive: 1.63. The result for GCUACCUGCGACAAGAAAUTT against Defb23 reads inactive: 0.212. The value for “GGACUGAACUAACAGGAAGTT against A630024B12Rik” was inactive: -2.76. Regarding GGGCCUUGUUUUAGGAAUUTT against Lap3, the z-score is inactive: -0.0978.

Regarding GCAAAAGUGAUAUUUGCACTT against LOC213043, the z-score was inactive: 1.54. The value for GCCCGCCUACUUUGAAGAATT against Slc17a7 was inactive: 0.22; that for GCUCAAUCUCUCUGAGACCTT against Vax1 was inactive: 0.858; that for “GGUCUUCAACAACAUUAUCTT against C630004H02Rik” was inactive: 0.314. The result for GGCAGGGAGCUUCUAGACUTT against Kiss1 reads inactive: 0.285. With GGAGCUGACGUGCUACUUATT against Apeg1, the z-score was inactive: 0.219. Regarding GCACAGAGGUCAGUUAAAGTT against Siat8c, the z-score was inactive: -0.712. The value for CGAUUAAAAAGGGACAUAUTT against Grid1 was inactive: -1.64. The value for GGUUCUCUGCCAGUUCUGUTT against Mid1 was inactive: -0.675; that for GGCAAAAAUUACCUGUUGATT against Alms1 was inactive: 0.211; that for GCAGGAGUUUAUCAGAGGATT against Prim2 was inactive: -1.79. The value for GGGAAUUAACCCUAGUGCUTT against B4galt3 was inactive: -0.797; that for CCUUUUAGGGAAAUUUGCATT against Mcmdc1 was inactive: 0.0862. “CGAAUGACUCGUUUGUUAATT against 1700072E05Rik”: the z-score was inactive: 0.836. Turning to GGAGAAGAAUAGGAAUGCATT against Anpep, the z-score was inactive: 0.227. The value for GGUGUUGAGAUCAUUCUGCTT against Ors16 was inactive: 0.0914; that for GGAUUUCAACAGACAGGUGTT against BC017133 was inactive: 1.64. The result for GGCAAAAACUGCUGAUCUGTT against Tex9 reads inactive: 0.443; that for GGAACCAAAGUCAAAGGAGTT against Fip1l1, inactive: -2.85; that for GCGGUCUGUCCCUACUAAUTT against Dnajc4, inactive: -0.859. Turning to CCCUGUAAGGUUGAUUGUGTT against Oog3, the z-score was inactive: -0.971.

In the case of GCUGAUUAGCCAUGUAAUUTT against Cebpg, the z-score was inactive: -1.53. The value for “GGUAACUGAUUGCUUAGAUTT against 2410004J23Rik” was inactive: -1.53; that for “GGAAAAAGACUUCUAUCACTT against D730001G18Rik” was inactive: 1.29. The value for GGUGGAGAAGCAGAUGCUUTT against Nek2 was inactive: -0.475; that for “GGGUAGGCAAAGUUUUCAATT against 1700029M20Rik” was inactive: -0.896. The result for GGGCAUUUUUGAGAUGGUUTT against Syngr2 reads inactive: 0.851.

Take GGAAUCAAUAAAUGUCUACTT against Cyb561: the z-score was inactive: 0.995. The result for GGAACAAAGAUGUCAAACATT against Olfr466 reads inactive: 0.798. The result for GGUUCUUGGGCACCAUUAUTT against Olfr786 reads inactive: -2.43; that for CCUUCCUAACCAAUGAUGATT against AW121567, inactive: -0.166.

As for GGAGGAAGUUGAACUAUUGTT against Brd3, the z-score is inactive: -2.24. The result for CGAUUUCGCUGUUACUAAATT against Slc2a3 reads inactive: 0.997; that for GCCGUUUGGUUUCGAACUUTT against Oact2, inactive: -1.02. The result for “CCCAGGACGACGACUUUUUTT against 0710005I19Rik” reads inactive: 0.881; that for CCUAAAUCUAUGAUGAAGATT against Cct3, inactive: -0.132. Consider “GCAGUCCUCGUCCUCAAAGTT against 1110056N09Rik”, for which the z-score was inactive: -0.502. The result for UAUAAUACUUCCCUUGCUGTT against Sox15 reads inactive: 0.11; that for GGAAGAUGUGGAAAAAGCGTT against Smarca2, inactive: 1.39; that for “CCUAGUAAUGUCCAUUGUGTT against 2310067E08Rik”, inactive: 0.0763. The value for GGAAGACACAUUUUUCCAUTT against Serpinb9e was inactive: -0.145; that for GGUCUAUGUACUCGCCAAATT against Ptpns1 was inactive: -0.633; that for GCGUAUAGGUGAUGUACAGTT against Smad3 was inactive: -0.697.

With CGCUAACUUCCAAGUGCCUTT against Tacstd2, the z-score is inactive: 1. As for CACUGCUGUAAUCCCUAUGTT against Olfr1002, the z-score was inactive: 0.747.

On to GUGUUUCCUUGUUAAGAUUTT against Cno, for which the z-score was inactive: -0.695. The result for GGGUGCUUUUCUGAAAGUATT against Olfr1342 reads inactive: -0.949; that for GGCCUUGUUUUUAAGUAAATT against Atp12a, inactive: -0.112; that for GUGGACUUUUAGCAAUCAGTT against Olfr98, inactive: 1.04. The value for CCAGGUGUUUGAUGCAUUCTT against LOC436240 was inactive: -1.2; that for “GCUAGAGACUGUUUGCACGTT against 4432406C08Rik” was inactive: 0.531. As for “CCAAAGGGAAGAGUUAUGCTT against 1110001A23Rik”, the z-score is inactive: -1.17. The value for “CCUACACAAAAUCACUUUGTT against 4921536I21Rik” was inactive: -0.568; that for GGAAAAUCAAGUGCAAACUTT against Fgfr1op was inactive: 0.229. The result for GGCUCUGAGACACAUCUACTT against Cpt1b reads inactive: 0.378; that for GGUCUUCAAAGACAUCAGCTT against F11, inactive: 0.251; that for GCUCAAGGUCUCAUUUUUATT against Il18bp, inactive: -0.0178. As to GGAAACCUACCGUUACCUATT against Kcnj5, the z-score was inactive: 1.23. The value for GGUUCCUGAACAUCCUUUUTT against Hyal3 was inactive: 0.232; that for GGAUCACCACUACUUUAAATT against Cops5 was inactive: -1.1; that for GGUCAGAAUGAAUUCAGUUTT against Il10rb was inactive: -1.37. The value for “GGACAUGGGUGAUAAAGUUTT against 9330129D05Rik” was inactive: 0.289.

As for GGUCUUCUUUGAUGUGAGGTT against Ppic, the z-score was inactive: 0.259.

As to CCCUCAUUUACUCUAGUAATT against Defb12, the z-score is inactive: -0.297. In the case of GCAAUUGAAAGCUUCGCCCTT against Mcf2l, the z-score is inactive: -0.459. GGACUUUUUAUACUGUGGATT against 2-Sep: the z-score was inactive: -0.863.

Turning to “GGUGCUUUGCUCUUUCUUGTT against 9130413I22Rik”, the z-score was inactive: 0.0478. The value for GGCCUGUUUUGUGAACUGCTT against Timm8a was inactive: 0.0999; that for “GGGAUUUUUGAAACUGAAGTT against 2700085E05Rik” was inactive: -0.791.

For GCCUGAUAUCAACAUAGGATT against Pthr2, the z-score is inactive: 0.11. The result for GGACCAGAACCGUUACUUATT against Bet1l reads inactive: 1; that for GGCUAGGACCUAUACCAUUTT against Aprt, inactive: 1.26; that for CCUUCUUGCUUCAGAGCAGTT against Slc34a3, inactive: 1.85.

Take GGAUGAAGCAUUUAUUCCATT against Bmpr1a: the z-score was inactive: 1.1. The value for GGCAAUUUGCUGUUUCAUATT against Siat7e was inactive: 0.037.

In the case of “GGGAAUCUGGCCAUACUAGTT against 1700022I11Rik”, the z-score is inactive: -1.1. The result for CCUUUUGUUAGUGAGUUAGTT against Ywhag reads inactive: -0.0098. The value for CCAUCUGGACUUCAGUUUUTT against Garnl4 was inactive: -0.0858; that for GCAACACACUGCUUCCUGGTT against Tmem19 was inactive: 0.396. The value for GGCUGUUUACACGUUAGUGTT against Diablo was inactive: -0.14; that for “GGCCUUUUACUGUUCUGUGTT against 6820416H06Rik” was inactive: -0.607; that for GCCUGUUAUUCAACAUUCUTT against Diap2 was inactive: 0.214. For the sequence GCUUAGACAACGACAUUUCTT against Mcoln3, the z-score was inactive: 0.243.
